From PMC12775950
These are yes or no findings as the source states them, for the method shown. In cells and extracts the contact can be indirect. Some binding calls cover weakened binding; strength is not graded here. For some assays here: Sequences can lack the tags named with a protein.

The chains behind the UniProt entries cited, without tags or fusion partners. Where a name states a change or a piece, a line headed by the entry shows the natural chain unless it says otherwise. Residues count along the entry.
GPRC5B, wild type, NanoBiT fusions (GPRC5B–SmBiT and GPRC5B–LgBiT) (Q9NZH0, residues 29-403): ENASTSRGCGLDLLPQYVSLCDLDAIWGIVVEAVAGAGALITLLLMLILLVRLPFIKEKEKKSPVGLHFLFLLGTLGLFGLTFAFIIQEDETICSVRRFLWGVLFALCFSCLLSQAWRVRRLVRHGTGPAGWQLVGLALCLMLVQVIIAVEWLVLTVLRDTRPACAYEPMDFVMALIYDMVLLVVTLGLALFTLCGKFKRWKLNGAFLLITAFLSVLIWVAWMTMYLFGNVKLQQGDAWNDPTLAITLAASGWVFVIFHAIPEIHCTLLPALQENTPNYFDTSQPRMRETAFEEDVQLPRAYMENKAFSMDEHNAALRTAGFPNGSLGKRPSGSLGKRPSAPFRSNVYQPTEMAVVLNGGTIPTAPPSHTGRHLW

Columns and labels:
[1] = target: GPRC5B A177dup (MLC3 mutant), NanoBiT fusions (human) (UniProt Q9NZH0); assay: split reporter; NanoBiT (SmBiT/LgBiT) complementation in transiently transfected HEK293T cells, constitutive (no ligand); NanoLuc signal normalised to cotransfected RLuc
[2] = target: GPRC5B A177dup (MLC3 mutant), NanoBiT fusions (human) (UniProt Q9NZH0); assay: split reporter; NanoBiT complementation in HEK293T cells with a third plasmid coexpressed: pCDNA3.1-empty, pCDNA3.1-MLC1, pCDNA3.1-GlialCAM (or LRRC8A as specificity control); NanoLuc signal normalised to RLuc
[3] = target: GPRC5B I176dup (MLC3 mutant), NanoBiT fusions (human) (UniProt Q9NZH0); assay: split reporter; NanoBiT (SmBiT/LgBiT) complementation in transiently transfected HEK293T cells, constitutive (no ligand); NanoLuc signal normalised to cotransfected RLuc
[4] = target: GPRC5B I176dup (MLC3 mutant), NanoBiT fusions (human) (UniProt Q9NZH0); assay: split reporter; NanoBiT complementation in HEK293T cells with a third plasmid coexpressed: pCDNA3.1-empty, pCDNA3.1-MLC1, pCDNA3.1-GlialCAM (or LRRC8A as specificity control); NanoLuc signal normalised to RLuc
[5] = target: GPRC5B, BRET fusions (GPRC5B-RLuc and GPRC5B-YFP) (human) (UniProt Q9NZH0); assay: FRET or BRET; BRET saturation in HEK293T cells: constant GPRC5B-RLuc (250 ng), increasing GPRC5B-YFP; 48 h after transfection; h-coelenterazine 5 μM; cells in PBS
[6] = target: GPRC5B, split-TEV fusions (GPRC5B-TEV-N and GPRC5B-TEV-C) (human) (UniProt Q9NZH0); assay: split reporter; split-TEV protease complementation in HEK293T cells: one copy fused to TEV-N, TEV site and GV, the other to TEV-C; Gaussia luciferase reporter in the supernatant after 48 h, normalised to β-galactosidase
[7] = target: GPRC5B, wild type, NanoBiT fusions (GPRC5B–SmBiT and GPRC5B–LgBiT) (human) (UniProt Q9NZH0); assay: split reporter; NanoBiT (SmBiT/LgBiT) complementation in transiently transfected HEK293T cells, constitutive (no ligand); NanoLuc signal normalised to cotransfected RLuc
[8] = target: GPRC5B, wild type, NanoBiT fusions (GPRC5B–SmBiT and GPRC5B–LgBiT) (human) (UniProt Q9NZH0); assay: split reporter; NanoBiT complementation in HEK293T cells with a third plasmid coexpressed: pCDNA3.1-empty, pCDNA3.1-MLC1, pCDNA3.1-GlialCAM (or LRRC8A as specificity control); NanoLuc signal normalised to RLuc
[9] = target: GPRC5B I176dup (MLC3 mutant), NanoBiT fusions (human) (UniProt Q9NZH0); assay: split reporter; NanoBiT (SmBiT/LgBiT) complementation in transiently transfected HEK293T cells, constitutive (no ligand); NanoLuc signal normalised to cotransfected RLuc; remark: listed apart in the source
[10] = target: GPRC5B A177dup (MLC3 mutant), NanoBiT fusions (human) (UniProt Q9NZH0); assay: as above; remark: listed apart in the source
[11] = target: GPRC5B, wild type, NanoBiT fusions (GPRC5B–SmBiT and GPRC5B–LgBiT) (human) (UniProt Q9NZH0); assay: as above; remark: listed apart in the source

## GPRC5B A177dup (MLC3 mutant), NanoBiT fusions (from UniProt Q9NZH0 29-403) (receptor)
[1]
  binding: binds
[2]
  binding: binds

## GPRC5B I176dup (MLC3 mutant), NanoBiT fusions (from UniProt Q9NZH0 29-403) (receptor)
[3]
  binding: binds
[4]
  binding: binds

## GPRC5B, BRET fusions (GPRC5B-RLuc and GPRC5B-YFP) (from UniProt Q9NZH0 29-403) (receptor)
[5]
  binding: binds

## GPRC5B, split-TEV fusions (GPRC5B-TEV-N and GPRC5B-TEV-C) (from UniProt Q9NZH0 29-403) (receptor)
[6]
  binding: binds

## GPRC5B, wild type, NanoBiT fusions (GPRC5B–SmBiT and GPRC5B–LgBiT) (from UniProt Q9NZH0 29-403) (receptor)
[7]
  binding: binds
[8]
  binding: binds

## β-arrestin 2 fused to LgBiT (from UniProt P32121 1-409)
[3]
  binding: binds
[1]
  binding: binds
[7]
  binding: binds
[4]
  binding: binds
[2]
  binding: binds
[8]
  binding: binds

B1: GlialCAM, SmBiT-tagged (protein, UniProt Q14CZ8 34-416)
chain: VNITSPVRLIHGTVGKSALLSVQYSSTSSDRPVVKWQLKRDKPVTVVQSIGTEVIGTLRPDYRDRIRLFENGSLLLSDLQLADEGTYEVEISITDDTFTGEKTINLTVDVPISRPQVLVASTTVLELSEAFTLNCSHENGTKPSYTWLKDGKPLLNDSRMLLSPDQKVLTITRVLMEDDDLYSCMVENPISQGRSLPVKITVYRRSSLYIILSTGGIFLLVTLVTVCACWKPSKRKQKKLEKQNSLEYMDQNDDRLKPEADTLPRSGEQERKNPMALYILKDKDSPETEENPAPEPRSATEPGPPGYSVSPAVPGRSPGLPIRSARRYPRSPARSPATGRTHSSPPRAPSSPGRSRSASRTLRTAGVHIIREQDEAGPVEISA
[9]
  binding: binds
[10]
  binding: binds
[11]
  binding: binds

B2: MLC1, SmBiT-tagged (protein, UniProt Q15049 1-377)
chain: MTQEPFREELAYDRMPTLERGRQDPASYAPDAKPSDLQLSKRLPPCFSHKTWVFSVLMGSCLLVTSGFSLYLGNVFPAEMDYLRCAAGSCIPSAIVSFTVSRRNANVIPNFQILFVSTFAVTTTCLIWFGCKLVLNPSAININFNLILLLLLELLMAATVIIAARSSEEDCKKKKGSMSDSANILDEVPFPARVLKSYSVVEVIAGISAVLGGIIALNVDDSVSGPHLSVTFFWILVACFPSAIASHVAAECPSKCLVEVLIAISSLTSPLLFTASGYLSFSIMRIVEMFKDYPPAIKPSYDVLLLLLLLVLLLQAGLNTGTAIQCVRFKVSARLQGASWDTQNGPQERLAGEVARSPLKEFDKEKAWRAVVVQMAQ
[9]
  binding: binds
[10]
  binding: binds
[11]
  binding: binds
